Results of single-concentration screens

Sequences of proteins named here, by UniProt entry; tags and fusion partners are left off. Residues count along the entry.
UniProt A4I591, 1-473: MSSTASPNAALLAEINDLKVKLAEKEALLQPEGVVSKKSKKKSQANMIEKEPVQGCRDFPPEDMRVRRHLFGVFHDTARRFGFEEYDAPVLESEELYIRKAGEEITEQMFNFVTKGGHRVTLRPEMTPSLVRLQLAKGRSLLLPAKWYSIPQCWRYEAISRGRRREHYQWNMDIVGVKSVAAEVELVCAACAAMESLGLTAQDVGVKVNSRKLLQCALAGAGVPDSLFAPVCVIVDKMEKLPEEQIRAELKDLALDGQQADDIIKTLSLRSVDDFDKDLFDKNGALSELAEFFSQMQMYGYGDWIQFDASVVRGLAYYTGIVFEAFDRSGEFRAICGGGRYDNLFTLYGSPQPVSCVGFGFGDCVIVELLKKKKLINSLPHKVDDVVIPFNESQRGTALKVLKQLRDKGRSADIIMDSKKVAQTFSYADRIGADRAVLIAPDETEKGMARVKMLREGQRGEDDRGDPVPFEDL

Measurements from “University of Dundee, Small-Polar-MMV Screening Library” (2021), ChEMBL document CHEMBL3988442.

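Histidine-tRNA ligase, Leishmania infantum (UniProt A4I591). Enzyme assay of histidyl-tRNA synthetase; the read-out is not stated. Compounds at 30 µM. Higher reads as stronger inhibition (inferred: compounds with an IC50 in retests scored well above the rest). The assay is labelled LdHisRS but filed under L. infantum. Size under these conditions: about 69,000 compounds, about 410 of them at 50% or above in at least one test.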

Each number is a percent effect as filed.
The record does not define 0% and 100%; most values in the screen are far below 50% and negative numbers occur (in some assays of this library far below -100).
This is an unselected part of the compounds tested.

| # | SMILES | effect |
|---|---|---|
| 1 | `Cc1ccc(Sc2ccc(CN3CCC4(CC3)NCCNC4=O)o2)cc1` | 8.333% |
| 2 | `CCOCC(=O)N1CSCC1C(=O)N(C)Cc1ccco1` (centres unmarked) | 13.46% |
| 3 | `O=C(NCCCn1cccn1)N1CCCC1c1ccsc1` (centres unmarked) | 13.39% |
| 4 | `CNc1cc(CNC(=O)c2ccncc2)nc(-c2ccncc2)n1` | 18.84% |
| 5 | `Cc1c(NCc2cccnc2)cccc1C(=O)N1CCC(N(C)C)C1` (centres unmarked) | 14.29% |
| 6 | `Cc1cnc(C)c(N2CCCC(C/C=C/c3ccccc3)(C(=O)O)C2)n1` (centres unmarked) | 22.92% |
| 7 | `Cc1cccc(CN2CCC3(CCN(Cc4ccccn4)C3)C2=O)c1` (centres unmarked) | 2.439% |
| 8 | `CCN1CCN(C(=O)c2cc(F)cc3nc(C)c(C)nc23)CC1` | 13.39% |
| 9 | `Cc1ccc(CN2CCC3(CC2)CCN(C(=O)c2cccnc2)C3)o1` | 10% |
| 10 | `CC(=O)N1CCCN(C(=O)NCCOc2ccc3c(c2)OCO3)CC1` | 3.846% |
| 11 | `Cc1noc(C)c1CN(C)C(=O)c1ccc(C(N)=O)nc1` | 9.649% |
| 12 | `COCC1CN(Cc2cc(C)on2)Cc2cn(CC3CCCC3)nc21` (centres unmarked) | 13.89% |
| 13 | `C[C@H](C(=O)N1Cc2ccccc2CC2(CCCN2C)C1)c1ccccc1` (some centres unmarked) | 22.07% |
| 14 | `COCCC(=O)Nc1cc(CC(C)(C)C)n[nH]1` | 13.51% |
| 15 | `c1csc(-c2nc(CN3CCOC(Cn4cncn4)C3)cs2)c1` (centres unmarked) | 10.61% |
| 16 | `CC(C)c1nc(C2CCCN2C(=O)c2cnns2)no1` (centres unmarked) | 9.174% |
| 17 | `CCS(=O)(=O)NCCCNC1CSCCc2ccccc21` (centres unmarked) | 6.667% |
| 18 | `CC(c1ccccn1)N(C)C(=O)NCCn1c(=O)oc2ccccc21` (centres unmarked) | 7.692% |
| 19 | `Cn1cc(C(=O)N2CCCC(c3ccncc3)C2)cn1` (centres unmarked) | 19.79% |
| 20 | `Fc1ccc2[nH]c3c(c2c1)CCN1C(c2ccncc2)N2CCC31CC2` (centres unmarked) | 9.929% |
| 21 | `CCn1nc(C)cc1NC(=O)CCn1nc(C)c(Br)c1C` | 11.11% |
| 22 | `O=C1CC2(CCSC2)C(=O)N1Cc1ncc(-c2ccccc2)o1` (centres unmarked) | 17.24% |
| 23 | `CN(Cc1ccc(Cl)s1)C(=O)NCCN1CCCCCC1=O` | 19.35% |
| 24 | `CCCc1nnc(NC(C)c2ccc(F)cc2)o1` (centres unmarked) | 8.73% |
| 25 | `Cc1cc(C(F)(F)F)cc(=O)n1Cc1nc(C(C)C)no1` | 9.79% |
| 26 | `Cc1noc(C)c1-c1n[nH]c2c1CN(S(=O)(=O)c1ccsc1)CC2` | 1.55% |
| 27 | `Cc1ccnc(N2Cc3cnn(Cc4ccc(F)cc4)c3C2)n1` | 18.75% |
| 28 | `CN(C)c1ncc2c(n1)CCCC2NC(=O)C1CC1` (centres unmarked) | 8.065% |
| 29 | `Nc1cc2c(nn1)CCN(C(=O)CCC1CCCCC1)C2` | 20.34% |
| 30 | `CCC(=O)N1CCCC(C(=O)NCc2noc(Cc3ccccc3)n2)C1` (centres unmarked) | 14% |
| 31 | `O=c1c2ccccc2nc2n1C(CSc1ccc(F)cc1)CN2` (centres unmarked) | 2.083% |
| 32 | `Cc1nnc(C2CCN(C(=O)c3ccc(-n4cccc4)cc3)CC2)s1` | 38.71% |
| 33 | `O=C(NCCSc1ccccc1)[C@H]1CNC[C@@H](C(=O)N2CCOCC2)C1` | 13.11% |
| 34 | `COCC[C@]1(O)CCN(CC(=O)NCc2ccccc2C)C[C@H]1C` | 10.62% |
| 35 | `c1cnnc(N2CCCC2CNc2nc3ccccc3o2)c1` (centres unmarked) | 16.22% |
| 36 | `c1ccc(CCn2cc(-c3nc(CN4CCOCC4)no3)nn2)cc1` | 8.602% |
| 37 | `CCn1ncc2c1C(COC)CN(Cc1cnn(C)c1)C2` (centres unmarked) | 0% |
| 38 | `Cc1cc(C(=O)Nc2cccn(Cc3ccc(F)cc3)c2=O)no1` | 20.35% |
| 39 | `Cc1ccc(NC2CCN(C(=O)COc3cccc(F)c3)CC2)nn1` | 5.263% |
| 40 | `Cc1cc(C)nc(N2CCC(c3cccc(CCC(=O)O)n3)CC2)n1` | 8.054% |
| 41 | `CCC1CN(C(=O)c2ccc(O)cn2)CCC(=O)N1Cc1ccccc1` (centres unmarked) | 12.9% |
| 42 | `CC(=O)c1cc2ncc(C(=O)NC3CCCC3)cc2[nH]1` | 19.8% |
| 43 | `CCCOC(=O)N1CCc2cccc(S(=O)(=O)N3CCOCC3)c2C1` | 6.452% |
| 44 | `Cc1cc(C)nc(C2CCCN2S(=O)(=O)N2CCOCC2)n1` (centres unmarked) | 8.511% |
| 45 | `CN(C)c1ncnc2c1CCN(Cc1nccs1)CC2` | 5.263% |
| 46 | `COc1ccccc1CN(CC1CCCO1)C(=O)c1scnc1C` (centres unmarked) | 20.41% |
| 47 | `CCN1CCN(C(=O)C2CCOC2)c2ccccc21` (centres unmarked) | 15.29% |
| 48 | `CNCc1ccc(OCc2ccc3c(c2)OCCO3)cc1` | 12.5% |
| 49 | `Cc1noc(C2(C)CCN(C(=O)C(C)C)CC2)n1` | 12.68% |
| 50 | `Cn1cc(CN2CC[C@]3(C[C@H](OCc4ccccn4)CO3)C2)cn1` | 12.82% |
| 51 | `CCOc1ccccc1CN(C)C(=O)CN1C(=O)OC[C@@H]1C(C)C` | 13.33% |
| 52 | `CC(C)NC(=O)CCNC(=O)Nc1cnn(-c2ccccc2F)c1` | 9.091% |
| 53 | `Cc1nnc(NC(=O)CN2CCCC(Cn3cncn3)C2)s1` (centres unmarked) | 20.27% |
| 54 | `O=C(Cc1ccc2c(c1)CCCC2)NCCNc1cnccn1` | 18.42% |
| 55 | `Cc1ccc(C(=O)N2CCC3(CCCN(c4ncc(F)cn4)C3)C2)cn1` (centres unmarked) | 4.545% |
| 56 | `CCOC(=O)COc1nc(CC(C)C)c2c(c1C#N)CCC2` | 5.128% |
| 57 | `CN(C)C(=O)CN1CCOCC2(CCN(CC3CCOCC3)CC2)C1` | 12.28% |
| 58 | `Cc1cnn(CC2CC2)c1NC(=O)c1cccnc1O` | 12.9% |
| 59 | `Cc1nn(C)c2nc(N(Cc3ccccc3)CC3CCCO3)sc12` (centres unmarked) | 22.92% |
| 60 | `O=C(CCC(F)(F)F)N1CCCC(CO)(CC2CC2)C1` (centres unmarked) | 16.33% |
| 61 | `Cc1nc(Nc2nnc(C)s2)cc(C2CCCN2c2ccncc2)n1` (centres unmarked) | 18% |
| 62 | `CC(NC(=O)c1ccc(F)cc1F)c1cnn(C)c1` (centres unmarked) | 9.735% |
| 63 | `CC(NCCCn1ccnc1)c1ccc(N2CCOC2=O)cc1` (centres unmarked) | 7.042% |
| 64 | `CSc1ccccc1CC1CCCS(=O)(=O)C1` (centres unmarked) | 2.618% |
| 65 | `c1cnn(C2CN(CCCOc3ccc4c(c3)OCO4)C2)c1` | 28.57% |
| 66 | `CN(Cc1nnc(C2CC2)o1)C1CCCN(c2cccnn2)C1` (centres unmarked) | 32.14% |
| 67 | `O=C1CCSCC(C(=O)NCc2nc(-c3ccccc3)no2)N1` (centres unmarked) | 14.63% |
| 68 | `Cc1cccc(S(=O)(=O)N2C[C@H]3C[C@H](C(=O)N(C)C)[C@@H](C2)O3)c1` | 11.97% |
| 69 | `CCc1noc(C)c1C(=O)N1CCCC1Cn1nc(C)cc1C` (centres unmarked) | 13.64% |
| 70 | `CC(=O)N1CCC(c2cncc(Oc3ccccc3)n2)CC1` | 8.029% |
| 71 | `O=C(NCC1CCCCO1)c1ccc(-c2cccs2)[nH]c1=O` (centres unmarked) | 20% |
| 72 | `COCCn1ccc2ccc(C(=O)N3CCN(C(C)=O)CC3)cc21` | 21.74% |
| 73 | `N#Cc1cnc(NC2CCN(C(=O)C3CC3)CC2)c(Cl)c1` | 19.18% |
| 74 | `CC(=O)c1cn(CCC(=O)NCCCC(=O)O)c2ccccc12` | 5.435% |
| 75 | `CN1CCC2(Cc3ccccc3NC2=O)C1` (centres unmarked) | -15.79% |
| 76 | `O=C(NCc1cc2n(n1)CCCN(Cc1ccc(Cl)s1)C2)C1CCC1` | 16.8% |
| 77 | `Cc1cc(N2CCC(Cc3ccncc3)C2)ncn1` (centres unmarked) | 15.49% |
| 78 | `Cc1noc(C)c1CCC(=O)NCC1(O)CCCN(c2ccccn2)C1` (centres unmarked) | 17.02% |
| 79 | `COCCc1noc(CN2CCCC(Cn3nc(C)nc3C)C2)n1` (centres unmarked) | 11.9% |
| 80 | `Cc1nc(CN2CCCC(N(C)Cc3nnc(C4CC4)o3)C2)no1` (centres unmarked) | 6.612% |
| 81 | `O=C(O)CC1COCCN1C(=O)C1(c2ccc(Cl)cc2)CCC1` (centres unmarked) | 20.34% |
| 82 | `CCC(CC)NC(=O)CN1CCSCC1` | 27.4% |
| 83 | `CCOC(=O)CN(CC(F)(F)F)C(=O)c1nc(C)n2ccccc12` | 15.08% |
| 84 | `CC1=C(C(=O)N(C)Cc2n[nH]c3c2CCCCC3)C(C)NC(=O)N1` (centres unmarked) | 22.34% |
| 85 | `Cc1ccnn1CCN1CCCC2(CCC(=O)N(C3CCCC3)C2)C1` (centres unmarked) | 10.84% |
| 86 | `CCN1CC2(CCN(C(=O)C3CSC(C)(C)C(=O)N3)CC2)CC1=O` (centres unmarked) | -1.408% |
| 87 | `c1cc(CN2CCCN(c3ccc4cc[nH]c4n3)CC2)ccn1` | 10.53% |
| 88 | `COC(C)(C)CC(C)NCc1cn2ccccc2n1` (centres unmarked) | 17.07% |
| 89 | `Cc1cccc(-n2c(C)cc(C(=O)NS(C)(=O)=O)c2C)c1` | 15.25% |
| 90 | `Cc1ccc(CC(=O)N(CC2CN(C)CCO2)c2nccs2)cn1` (centres unmarked) | -1.786% |
| 91 | `CCOC(=O)C1CCCN(Cc2cc(C#N)n(C)c2C)C1` (centres unmarked) | -1.087% |
| 92 | `Cc1nc(CN2CC(=O)N(C)c3ccccc3C2=O)no1` | 19.4% |
| 93 | `Cc1cc(CN2CCN(C(=O)NCc3ccc(C)s3)CC2)on1` | 7.143% |
| 94 | `Cc1cccc(N2CCC3(CCCN3Cc3cnn(C)c3C)CC2)n1` | 10.96% |

The last 8 entries again:

c1cc(CN2CCCN(c3ccc4cc[nH]c4n3)CC2)ccn1 gave 10.53%.
COC(C)(C)CC(C)NCc1cn2ccccc2n1 (centres unmarked) gave 17.07%.
Cc1cccc(-n2c(C)cc(C(=O)NS(C)(=O)=O)c2C)c1 gave 15.25%.
Cc1ccc(CC(=O)N(CC2CN(C)CCO2)c2nccs2)cn1 (centres unmarked) gave -1.786%.
CCOC(=O)C1CCCN(Cc2cc(C#N)n(C)c2C)C1 (centres unmarked) gave -1.087%.
Cc1nc(CN2CC(=O)N(C)c3ccccc3C2=O)no1 gave 19.4%.
Cc1cc(CN2CCN(C(=O)NCc3ccc(C)s3)CC2)on1 gave 7.143%.
Cc1cccc(N2CCC3(CCCN3Cc3cnn(C)c3C)CC2)n1 gave 10.96%.